The results in this text go back to the supplement of paper PMC10849652.

Sequences of proteins named here, by UniProt entry; tags and fusion partners are left off. A change or cut given only in a name is not applied to a line headed by its entry.
UniProt Q5XKK7: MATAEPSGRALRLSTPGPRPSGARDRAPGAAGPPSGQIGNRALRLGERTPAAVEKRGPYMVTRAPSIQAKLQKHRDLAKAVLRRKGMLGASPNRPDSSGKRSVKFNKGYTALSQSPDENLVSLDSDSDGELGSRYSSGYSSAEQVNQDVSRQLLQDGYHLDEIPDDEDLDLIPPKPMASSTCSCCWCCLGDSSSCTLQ
UniProt Q9BQ89: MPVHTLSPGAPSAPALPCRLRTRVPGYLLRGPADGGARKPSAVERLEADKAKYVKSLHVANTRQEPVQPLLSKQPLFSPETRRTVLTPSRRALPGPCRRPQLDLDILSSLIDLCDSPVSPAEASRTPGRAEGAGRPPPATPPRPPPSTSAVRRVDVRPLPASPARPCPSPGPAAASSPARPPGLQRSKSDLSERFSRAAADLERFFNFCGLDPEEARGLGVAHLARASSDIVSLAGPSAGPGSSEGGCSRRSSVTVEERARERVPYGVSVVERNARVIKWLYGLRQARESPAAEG
UniProt Q9NYF3: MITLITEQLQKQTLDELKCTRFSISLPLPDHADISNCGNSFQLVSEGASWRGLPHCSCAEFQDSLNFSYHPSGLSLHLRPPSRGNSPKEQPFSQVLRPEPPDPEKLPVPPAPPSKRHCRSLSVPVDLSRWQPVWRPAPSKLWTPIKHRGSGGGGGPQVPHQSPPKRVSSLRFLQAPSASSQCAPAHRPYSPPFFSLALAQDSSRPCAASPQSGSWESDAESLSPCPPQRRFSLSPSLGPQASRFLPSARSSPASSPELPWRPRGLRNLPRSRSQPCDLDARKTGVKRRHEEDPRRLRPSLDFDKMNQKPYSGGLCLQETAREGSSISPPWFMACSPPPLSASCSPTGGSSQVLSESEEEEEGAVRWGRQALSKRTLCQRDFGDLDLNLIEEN
UniProt O95718: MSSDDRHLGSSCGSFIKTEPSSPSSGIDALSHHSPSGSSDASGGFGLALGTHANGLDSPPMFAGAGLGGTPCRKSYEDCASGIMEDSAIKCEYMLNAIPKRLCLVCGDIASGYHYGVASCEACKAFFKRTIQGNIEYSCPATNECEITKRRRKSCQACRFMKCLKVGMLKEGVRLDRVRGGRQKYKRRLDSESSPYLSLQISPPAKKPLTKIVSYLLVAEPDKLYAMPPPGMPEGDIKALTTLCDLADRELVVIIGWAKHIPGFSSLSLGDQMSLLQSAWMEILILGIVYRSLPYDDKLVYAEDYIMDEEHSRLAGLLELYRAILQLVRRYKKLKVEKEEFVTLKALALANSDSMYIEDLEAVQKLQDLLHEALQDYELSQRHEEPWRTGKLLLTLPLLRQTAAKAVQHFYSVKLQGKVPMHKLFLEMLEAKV
UniProt Q8IW50: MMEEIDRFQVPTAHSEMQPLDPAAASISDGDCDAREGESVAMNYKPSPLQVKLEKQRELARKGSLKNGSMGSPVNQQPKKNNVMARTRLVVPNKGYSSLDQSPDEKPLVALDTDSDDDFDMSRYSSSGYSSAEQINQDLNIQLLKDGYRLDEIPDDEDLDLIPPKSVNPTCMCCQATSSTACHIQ
UniProt Q9P2D6: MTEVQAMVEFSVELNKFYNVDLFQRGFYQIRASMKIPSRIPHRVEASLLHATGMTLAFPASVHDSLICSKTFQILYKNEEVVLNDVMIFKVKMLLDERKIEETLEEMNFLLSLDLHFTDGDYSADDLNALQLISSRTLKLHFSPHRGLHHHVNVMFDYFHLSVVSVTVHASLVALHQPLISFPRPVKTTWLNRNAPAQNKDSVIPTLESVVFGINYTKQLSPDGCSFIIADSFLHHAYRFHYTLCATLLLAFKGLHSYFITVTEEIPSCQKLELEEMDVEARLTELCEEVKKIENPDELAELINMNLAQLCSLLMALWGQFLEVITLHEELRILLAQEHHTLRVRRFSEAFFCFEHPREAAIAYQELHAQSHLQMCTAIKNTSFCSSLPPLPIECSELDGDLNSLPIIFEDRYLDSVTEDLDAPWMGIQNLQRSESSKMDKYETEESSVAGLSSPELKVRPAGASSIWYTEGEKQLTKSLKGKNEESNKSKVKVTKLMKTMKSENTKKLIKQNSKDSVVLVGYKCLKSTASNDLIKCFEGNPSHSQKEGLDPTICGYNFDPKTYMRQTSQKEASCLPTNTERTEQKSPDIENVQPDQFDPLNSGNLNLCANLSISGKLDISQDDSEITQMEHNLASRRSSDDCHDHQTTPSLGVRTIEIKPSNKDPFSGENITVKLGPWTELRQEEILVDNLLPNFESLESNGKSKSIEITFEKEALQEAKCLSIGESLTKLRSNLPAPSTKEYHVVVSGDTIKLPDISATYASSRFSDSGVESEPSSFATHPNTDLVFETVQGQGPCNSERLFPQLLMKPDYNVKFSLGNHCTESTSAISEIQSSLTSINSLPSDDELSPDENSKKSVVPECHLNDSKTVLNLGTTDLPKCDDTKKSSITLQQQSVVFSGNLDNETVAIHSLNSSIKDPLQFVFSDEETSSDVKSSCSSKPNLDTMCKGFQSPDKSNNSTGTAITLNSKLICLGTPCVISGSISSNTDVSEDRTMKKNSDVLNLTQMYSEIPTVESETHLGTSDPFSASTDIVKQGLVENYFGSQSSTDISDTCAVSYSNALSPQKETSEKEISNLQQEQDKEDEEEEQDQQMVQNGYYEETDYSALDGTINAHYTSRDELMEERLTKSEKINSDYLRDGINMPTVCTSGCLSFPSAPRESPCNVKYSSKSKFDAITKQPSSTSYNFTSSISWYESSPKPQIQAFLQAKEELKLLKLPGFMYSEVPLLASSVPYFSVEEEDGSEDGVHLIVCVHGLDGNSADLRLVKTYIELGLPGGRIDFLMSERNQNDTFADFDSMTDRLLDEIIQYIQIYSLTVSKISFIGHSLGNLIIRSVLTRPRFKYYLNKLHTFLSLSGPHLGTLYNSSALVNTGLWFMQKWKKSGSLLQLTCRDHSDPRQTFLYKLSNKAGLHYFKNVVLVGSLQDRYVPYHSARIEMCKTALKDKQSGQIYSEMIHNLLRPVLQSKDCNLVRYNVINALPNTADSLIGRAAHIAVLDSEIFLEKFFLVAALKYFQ
UniProt P41212: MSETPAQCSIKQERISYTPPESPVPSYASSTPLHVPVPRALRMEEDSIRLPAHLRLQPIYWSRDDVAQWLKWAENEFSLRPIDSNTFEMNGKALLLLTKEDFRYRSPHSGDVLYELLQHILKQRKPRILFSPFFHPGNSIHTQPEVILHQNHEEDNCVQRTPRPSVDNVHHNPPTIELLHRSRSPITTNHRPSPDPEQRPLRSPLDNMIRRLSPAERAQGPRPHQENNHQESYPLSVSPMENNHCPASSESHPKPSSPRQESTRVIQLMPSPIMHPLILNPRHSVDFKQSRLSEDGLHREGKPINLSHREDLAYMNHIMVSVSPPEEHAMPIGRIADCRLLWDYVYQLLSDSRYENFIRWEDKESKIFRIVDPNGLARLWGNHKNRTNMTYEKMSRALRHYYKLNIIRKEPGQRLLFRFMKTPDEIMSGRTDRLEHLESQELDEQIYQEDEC
UniProt Q5HYJ3: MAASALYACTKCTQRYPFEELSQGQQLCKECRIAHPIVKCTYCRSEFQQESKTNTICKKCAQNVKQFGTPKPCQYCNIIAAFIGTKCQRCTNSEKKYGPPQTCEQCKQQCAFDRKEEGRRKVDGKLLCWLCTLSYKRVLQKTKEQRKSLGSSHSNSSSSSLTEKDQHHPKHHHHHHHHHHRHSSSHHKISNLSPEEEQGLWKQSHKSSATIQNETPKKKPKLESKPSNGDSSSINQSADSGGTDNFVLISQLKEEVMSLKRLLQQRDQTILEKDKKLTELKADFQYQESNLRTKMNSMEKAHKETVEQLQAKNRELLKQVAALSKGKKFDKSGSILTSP
UniProt Q6P1L5: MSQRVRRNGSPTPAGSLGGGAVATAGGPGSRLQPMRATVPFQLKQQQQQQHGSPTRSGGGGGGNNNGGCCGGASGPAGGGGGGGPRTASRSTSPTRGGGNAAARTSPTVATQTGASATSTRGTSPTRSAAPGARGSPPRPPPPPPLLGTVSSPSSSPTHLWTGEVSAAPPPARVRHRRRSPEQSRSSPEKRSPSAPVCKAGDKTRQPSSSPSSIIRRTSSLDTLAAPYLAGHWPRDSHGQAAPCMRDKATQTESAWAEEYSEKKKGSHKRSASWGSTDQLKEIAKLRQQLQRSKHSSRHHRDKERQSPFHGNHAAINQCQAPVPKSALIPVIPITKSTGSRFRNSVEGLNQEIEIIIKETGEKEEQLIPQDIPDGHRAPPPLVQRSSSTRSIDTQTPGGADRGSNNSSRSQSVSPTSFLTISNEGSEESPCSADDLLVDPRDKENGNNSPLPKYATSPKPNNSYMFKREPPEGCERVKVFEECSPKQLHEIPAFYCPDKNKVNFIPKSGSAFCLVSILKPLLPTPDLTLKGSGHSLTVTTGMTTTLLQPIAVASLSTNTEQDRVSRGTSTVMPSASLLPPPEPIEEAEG
UniProt O43909: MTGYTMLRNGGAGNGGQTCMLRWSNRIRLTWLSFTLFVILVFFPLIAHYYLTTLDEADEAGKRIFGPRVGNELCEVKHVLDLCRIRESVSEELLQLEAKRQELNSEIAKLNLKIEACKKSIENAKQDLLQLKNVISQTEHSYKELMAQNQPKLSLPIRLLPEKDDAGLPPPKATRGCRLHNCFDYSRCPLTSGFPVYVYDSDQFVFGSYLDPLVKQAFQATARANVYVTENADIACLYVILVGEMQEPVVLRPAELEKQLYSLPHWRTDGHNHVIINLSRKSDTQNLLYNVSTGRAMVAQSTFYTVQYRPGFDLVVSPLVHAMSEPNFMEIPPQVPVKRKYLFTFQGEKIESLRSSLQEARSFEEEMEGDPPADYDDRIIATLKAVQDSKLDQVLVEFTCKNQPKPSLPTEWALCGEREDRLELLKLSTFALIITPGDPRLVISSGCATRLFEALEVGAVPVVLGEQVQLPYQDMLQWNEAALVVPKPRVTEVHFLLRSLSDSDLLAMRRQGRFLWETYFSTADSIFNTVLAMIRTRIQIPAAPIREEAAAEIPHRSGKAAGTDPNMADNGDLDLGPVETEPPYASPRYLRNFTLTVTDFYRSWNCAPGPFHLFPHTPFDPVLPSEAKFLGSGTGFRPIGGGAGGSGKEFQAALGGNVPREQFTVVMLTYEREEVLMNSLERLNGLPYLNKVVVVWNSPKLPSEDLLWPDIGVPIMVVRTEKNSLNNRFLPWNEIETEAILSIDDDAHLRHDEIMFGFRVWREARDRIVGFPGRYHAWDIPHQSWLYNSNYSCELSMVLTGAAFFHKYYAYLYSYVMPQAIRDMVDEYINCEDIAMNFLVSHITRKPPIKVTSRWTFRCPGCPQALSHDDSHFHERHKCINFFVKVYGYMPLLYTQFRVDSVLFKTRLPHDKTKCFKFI
UniProt Q96RI0: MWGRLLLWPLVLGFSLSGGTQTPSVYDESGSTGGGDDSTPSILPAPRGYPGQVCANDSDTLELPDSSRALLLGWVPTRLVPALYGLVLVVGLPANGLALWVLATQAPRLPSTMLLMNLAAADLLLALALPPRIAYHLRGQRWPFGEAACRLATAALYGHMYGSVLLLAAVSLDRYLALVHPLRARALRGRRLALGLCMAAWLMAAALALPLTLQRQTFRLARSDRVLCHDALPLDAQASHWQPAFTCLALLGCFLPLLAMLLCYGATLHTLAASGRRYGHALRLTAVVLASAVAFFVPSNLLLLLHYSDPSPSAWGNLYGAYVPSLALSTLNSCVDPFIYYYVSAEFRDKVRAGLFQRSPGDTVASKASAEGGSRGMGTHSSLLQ
UniProt Q9NYK6: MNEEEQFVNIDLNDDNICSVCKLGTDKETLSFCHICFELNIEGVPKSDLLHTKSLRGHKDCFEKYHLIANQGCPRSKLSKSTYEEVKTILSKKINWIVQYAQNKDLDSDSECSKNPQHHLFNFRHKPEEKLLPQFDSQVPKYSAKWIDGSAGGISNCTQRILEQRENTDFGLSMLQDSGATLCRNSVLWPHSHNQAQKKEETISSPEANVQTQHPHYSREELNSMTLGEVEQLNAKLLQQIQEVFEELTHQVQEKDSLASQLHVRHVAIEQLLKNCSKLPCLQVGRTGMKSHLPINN
UniProt P25116: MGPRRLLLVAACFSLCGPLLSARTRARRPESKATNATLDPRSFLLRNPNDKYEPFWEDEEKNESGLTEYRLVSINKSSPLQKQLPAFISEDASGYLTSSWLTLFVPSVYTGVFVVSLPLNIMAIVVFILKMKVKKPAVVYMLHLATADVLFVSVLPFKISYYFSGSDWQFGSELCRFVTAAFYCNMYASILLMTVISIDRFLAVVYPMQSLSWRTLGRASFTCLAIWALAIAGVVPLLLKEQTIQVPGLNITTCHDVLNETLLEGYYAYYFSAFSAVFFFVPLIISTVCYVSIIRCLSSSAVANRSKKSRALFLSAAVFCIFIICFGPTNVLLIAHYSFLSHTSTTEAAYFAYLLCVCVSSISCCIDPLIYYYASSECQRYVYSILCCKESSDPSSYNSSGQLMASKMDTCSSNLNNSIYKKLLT
UniProt Q9BVV8: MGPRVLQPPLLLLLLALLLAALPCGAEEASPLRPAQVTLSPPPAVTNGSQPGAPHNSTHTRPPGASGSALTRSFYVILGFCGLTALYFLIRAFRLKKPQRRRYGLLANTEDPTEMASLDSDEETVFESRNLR

This is one part of the list.

Compound in one test: C1=CC=C(C=C1)[C@H](COC2=CC3=C(C=C2)NC(=O)N3)NC(=O)C4=CC=CN(C4=O)CC5=CC(=C(C=C5)F)F
The experiment in a line: log2 fold change, soluble protein after heating vs DMSO (PISA); higher = thermal stabilisation; K562 lysate, 10 uM; active = over 0.2 and 3.5 SD of the protein, either way, in both replicates (recomputed). The method, boiled down: (§1)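 Values give the log-two fold change in thermal stability against solvent controls, from duplicates. Crude K562 extract at 1 mg/mL protein, made by dounce homogenisation in PBS pH 7.4 with 1 mM MgCl2, was treated with 10 μM compound for 30 min. After 3 min heating across 48°C-58°C, aliquots were pooled, adjusted to 0.5% NP-40 at 4°C and centrifuged at 21,000xg for 90 min. The supernatant was measured by TMTpro 16plex LC-MS/MS with channel sums equalised.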
As to FAM219B (UniProt Q5XKK7), the log2 fold change was inactive: -0.119.

Turning to FAM110A (UniProt Q9BQ89), the log2 fold change was inactive: 0.245.

As to FAM53C (UniProt Q9NYF3), the log2 fold change was inactive: -0.057.

Turning to ESRRB isoform 1 (UniProt O95718), the log2 fold change is inactive: -0.147.

For FAM219A (UniProt Q8IW50), the log2 fold change is inactive: -0.011.

Consider FAM135A (UniProt Q9P2D6), for which the log2 fold change is inactive: 0.076.

Compound in the next test: CC1=C(SC2=C1C(=N[C@H](C3=NN=C(N32)C)CC(=O)N)C4=CC=C(C=C4)Cl)C
Described as above. The procedure, abridged: as §1
For the target FAM219B (UniProt Q5XKK7), the log2 fold change is inactive: 0.017.

With FAM110A (UniProt Q9BQ89), the log2 fold change was inactive: 0.143.

With FAM53C (UniProt Q9NYF3), the log2 fold change was inactive: 0.074.

With ESRRB isoform 1 (UniProt O95718), the log2 fold change is inactive: 0.109.

Take FAM219A (UniProt Q8IW50): the log2 fold change is inactive: 0.057.

Regarding FAM135A (UniProt Q9P2D6), the log2 fold change is inactive: 0.087.

Compound in a further test: CC1=C2C(=CC=C1)N=C(N(C2=O)C3=CC=CC=C3C)CN4C=NC5=C(N=CN=C54)N
Described as above. The method, boiled down:
as §1
For the target EXOC6B (UniProt Q9Y2D4), the log2 fold change was inactive: 0.106.

With FAM204A (UniProt Q9H8W3), the log2 fold change is inactive: -0.102.

On to FAM160B2 (UniProt Q86V87), for which the log2 fold change is inactive: 0.024.

Take ETV6 (UniProt P41212): the log2 fold change is inactive: -0.001.

On to ETV5 isoform 2 (UniProt P41161), for which the log2 fold change was inactive: 0.04.

Consider FAM76B (UniProt Q5HYJ3), for which the log2 fold change is inactive: 0.066.

Take FAM72C (UniProt H0Y354): the log2 fold change is inactive: -0.063.

Turning to FAM193B (UniProt Q96PV7), the log2 fold change is inactive: 0.064.

For the target FAM117B (UniProt Q6P1L5), the log2 fold change is inactive: 0.01.

With EXD2 (UniProt Q9NVH0), the log2 fold change was inactive: 0.119.

Take EXTL3 (UniProt O43909): the log2 fold change was inactive: -0.172.

With ETAA1 (UniProt Q9NY74), the log2 fold change is inactive: 0.06.

Take ETV4 (UniProt P43268): the log2 fold change is inactive: 0.036.

On to F2RL3 (UniProt Q96RI0), for which the log2 fold change is inactive: 0.032.

Take FAM111A (UniProt Q96PZ2): the log2 fold change is inactive: -0.008.

For the target EXO1 (UniProt Q9UQ84), the log2 fold change was inactive: 0.339.

Compound in another test: Cc1sc2c(c1C)C(c1ccc(Cl)cc1)=N[C@@H](CC(=O)OC(C)(C)C)c1nnc(C)n1-2
The test is described as above. The method, boiled down:
as §1
EXOC3L2, A0A1C7CYX0: the log2 fold change is inactive: -0.016.

Turning to FAM171A1 (UniProt Q5VUB5), the log2 fold change is inactive: 0.243.

ESPN (UniProt B1AK53): the log2 fold change was inactive: 0.079.

ETV6 (UniProt P41212): the log2 fold change was inactive: -0.026.

As for FAM76B (UniProt Q5HYJ3), the log2 fold change was inactive: 0.038.

FAM117B (UniProt Q6P1L5): the log2 fold change is inactive: -0.187.

FAM3A (UniProt Q9BU27): the log2 fold change is inactive: 0.442.

As to EVA1B (UniProt Q9NVM1), the log2 fold change was inactive: -0.152.

In the case of EXD2 (UniProt Q9NVH0), the log2 fold change is inactive: 0.001.

For the target EXTL3 (UniProt O43909), the log2 fold change is inactive: -0.038.

Turning to FAM53C (UniProt Q9NYF3), the log2 fold change is inactive: 0.

Take EURL (UniProt Q9NYK6): the log2 fold change is inactive: -0.085.

Take FAM219A (UniProt Q8IW50): the log2 fold change is inactive: 0.025.

Take FAM135A (UniProt Q9P2D6): the log2 fold change is inactive: 0.045.

Regarding ESCO2 (UniProt Q56NI9), the log2 fold change was inactive: -0.195.

Turning to ETV1 (UniProt P50549), the log2 fold change was inactive: 0.08.

As to ERV3-1 (UniProt Q14264), the log2 fold change was inactive: 0.267.

As to F2RL3 (UniProt Q96RI0), the log2 fold change was inactive: 0.

For the target FAM111A (UniProt Q96PZ2), the log2 fold change is inactive: -0.097.

FAM13A (UniProt O94988): the log2 fold change was inactive: -0.282.

Consider FAM120A, A0A494C0Y9, for which the log2 fold change was inactive: -0.047.

Compound in the next test: c1ccc([C@@H]2C[C@H]2NC2CCNCC2)cc1
The test is described as above. The procedure, abridged:
as §1
For the target FAM204A (UniProt Q9H8W3), the log2 fold change is inactive: -0.035.

Turning to FAM219B (UniProt Q5XKK7), the log2 fold change is inactive: 0.04.

Consider FAM160B2 (UniProt Q86V87), for which the log2 fold change is inactive: 0.025.

With EXOC3L2, A0A1C7CYX0, the log2 fold change is inactive: 0.07.

Turning to ETV6 (UniProt P41212), the log2 fold change was inactive: 0.077.

As to ETV5 isoform 2 (UniProt P41161), the log2 fold change was inactive: -0.047.

FAM76B (UniProt Q5HYJ3): the log2 fold change is inactive: -0.099.

As to FAM72C (UniProt H0Y354), the log2 fold change is inactive: 0.092.

As to FAM193B (UniProt Q96PV7), the log2 fold change was inactive: -0.054.

In the case of EVI2B isoform 2 (UniProt P34910), the log2 fold change is inactive: -0.047.

For the target FAM117B (UniProt Q6P1L5), the log2 fold change is inactive: 0.071.

FAM110A (UniProt Q9BQ89): the log2 fold change was inactive: -0.15.

Regarding F2R (UniProt P25116), the log2 fold change is inactive: 0.032.

On to EXTL3 (UniProt O43909), for which the log2 fold change was inactive: -0.112.

With FAM53C (UniProt Q9NYF3), the log2 fold change is inactive: -0.013.

EURL (UniProt Q9NYK6): the log2 fold change is inactive: -0.006.

As to ESRRB isoform 1 (UniProt O95718), the log2 fold change was inactive: 0.321.

FAM219A (UniProt Q8IW50): the log2 fold change is inactive: -0.002.

FAM135A (UniProt Q9P2D6): the log2 fold change is inactive: -0.108.

In the case of ESCO2 (UniProt Q56NI9), the log2 fold change was inactive: 0.295.

For EVI5L isoform 2 (UniProt Q96CN4), the log2 fold change is inactive: 0.036.

Consider ETV4 (UniProt P43268), for which the log2 fold change was inactive: -0.078.

For F2RL3 (UniProt Q96RI0), the log2 fold change is inactive: 0.199.

Turning to EXO1 (UniProt Q9UQ84), the log2 fold change is inactive: -0.063.

For FAM174C (UniProt Q9BVV8), the log2 fold change was inactive: -0.129.

With FAAP20 isoform 2 (UniProt Q6NZ36), the log2 fold change was inactive: 0.152.
